Results are given in words; binding and its absence hold for the method and conditions named. Some binding calls cover weakened binding; strength is not graded here.
Biological target: mouse BLyS (mouse) (UniProt Q9WU72)
Experiment: phage ELISA

Chains of the proteins cited; added tags and fusions are not shown. Residues count along the entry.
UniProt Q9WU72, residues 127-309: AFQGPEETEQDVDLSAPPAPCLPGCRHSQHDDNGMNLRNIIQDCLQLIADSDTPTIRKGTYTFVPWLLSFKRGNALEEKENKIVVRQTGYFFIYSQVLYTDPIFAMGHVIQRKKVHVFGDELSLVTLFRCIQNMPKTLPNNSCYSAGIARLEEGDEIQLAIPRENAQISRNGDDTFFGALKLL

Row | Binder | binding
1 | I061E07 (scFv) scFv: QVQLQQSGAEVKKTGASVKVSCKASGYIFADYYVHWVRQAAGQGLEWMGWINPNTGSTKYAQKFQDRVTMTRDTSIKTVYMELRRLRSDDTALYYCARATYDPLTGYSFDGFDIWGKGTMVTVSSGGGGSGGGGSGGGGSQSVLTQPPSASGTPGQRVTISCSGSSSNIGSNTVNWYQRLPGAAPQLLIYNNDQRPSGIPDRFSGSKSGTSGSLVISGLQSEDEADYYCASWDDSLNGRVFGGGTKLTVLG | binds
2 | I008A09 (scFv) scFv: GVQLVQSGGGVVQPGGSLRLSCAASGFTFSSYGMHWVRQAPGKGLEWVAVISYDGSNKYYADSVKGRFTISRDNSKNTLYLQMNSLRAEDTAVYYCARDREAYYDILTGYYLYYYYMDVWGRGTTVTVSSGGGGSGGGGSGGGGSQSVLTQPASVSGSPGQSITISCTGTSSDVGGYNYVSWYQQHPGKAPKLMIYEGSKRPSGVSNRFSGSKSGNTASLTISGLQAEDEADYYCSSYTTGSTRVFGGGTKLTVLG | binds
3 | I001C09 (scFv) scFv: GVQLVQSGPEVKKPGASVKVSCTASGYTFTSYGVSWVRQAPGQGLEWIGWISAHNGQTKYAEKFQGRVTMTRNTSISTAYMELSSLRSEDTAVYYCARDGSYDILTGYYIDNYMDVWGKGTMVTVSSGGGGSGGGGSGGGGSSELTQDPAVSVALGQTVRITCQGDSLRSYYTNWFQQKPGQAPLLVVYAKNKRPSGIPDRFSGSSSGNTASLTITGAQAEDEADYYCHSRDSSGNHVLFGGGTKLTVLG | binds
4 | I061H01 (scFv) scFv: QVQLVQSGGGLVKPGGSLRLSCAASGFTFSNAWMSWVRQAPGKGLQWVGRIKSKTDGGTTDYAAPVKGRFTISRDDSKNTLYLQMNSLKTEDTAVYYCTTFNPTYDILTGYYIGGYFQHWGQGTMVTVSSGGGGSGGGGSGGGGSQSVLTQPASVSGSPGQSITISCTGTSSDVGGYNYVSWYQQHPGKAPKLMIYEGSKRPSGVSNRFSGSKSGNTASLTISGLQAEDEADYYCSSYTTRSTRVFGGGTQLTVLG | binds
5 | I007H08 (scFv) scFv: QVQLQQSGPGLVKPSQILSLTCAISGDSVASNGAAWNWIRQSPSRGLEWLGRTYYRSKWYVDYAVSVKSRITINPDTSKNQFSLQLNSVTPEDTAVYYCARDRYDILTGYYYYGMDVWGQGTMVTVSSGGGGSGGGGSGGGGSQSALTQPASVSGSRGQSITISCTGTTGDVGGYDYVSWYQQHPGKAPKLLIYGNSNRPSGVPDRFSASKSGNTASLTISGLQAEDEADYFCNTYAPPGIIMFGGGTKLTVLG | binds
6 | I008A11 (scFv) scFv: QVQLQQSGPGLVKPSQILSLTCAISGDSVASNGAAWNWIRQSPSRGLEWLGRTYYRSKWYVDYAVSVKSRITINPDTSKNQFSLQLNSVTPEDTAVYYCARDRYDILTGYYYYGMDVWGQGTMVTVSSGGGGSGGGGSGGGGSQSALTQPASVSGSRGQSITISCTGTTGDVGGYDYVSWYQQHPGKAPKLLIYGNSNRPSGVPDRFSASKSGNTASLTISGLQAEDEADYFCSTYAPPGIIMFGGGTKLTVLG | binds
7 | I016F02 (scFv) scFv: GVQLVESGAEVKKPGASVKVSCRTSGYTFTSNSFSWVRQAPGQGLEWMGGIIPIFGTANYAQKLQGRVTITADELTRTVYMDLSSLRSEDTAVYYCATGMGDHYGMDVWGRGTLVTVSSGGGGSGGGGSGGGGSQSVLTQPASVSGSPGQSITISCTGTSSDVGGYNYVSWYQQHPGKAPKLMIYEGSKRPSGVSNRFSGSKSGNTASLTISGLQAEDEADYYCSSYTTRSTRVFGGGTKLTVLG | binds
8 | I006D07 (scFv) scFv: EVQLVESGGGVVQPGGSLRLSCAASGFTVNSYAMHWVRQAPGKGLQWVAVIPYDGSKKYYADSVKGRFTVSRDNSKNTLYLQMNSLRAEDTAVYYCARSHYDILTGLNYWYFDLWGRGTLVTVSSGGGGSGGGGSGGGGSSELTQDPAVSVALGQTVRITCQGDSLRSYYASWYQQKPGQAPVLVIYGKNNRPSGIPDRFSGSSSGNTASLTITGAQAEDEADYYCNSRGSSGNHVVFGGGTKLTVLG | binds

Results, then the binder that gave them:

Row | binding | Binder
9 | binds | I007B03 (scFv) scFv: GVQLQQSGAEVKKPGSSVKVSCKASGGTFNTSGITWVRQAPGQGLEWMGWMNPNTGDTAYAQEFQGRVIMTRDTSISTAYMELSSLRSEDTAVYYCARDGSYDILTGYYIDNYMDVWGQGTMVTVSSGGGGSGGGGSGGGGSQSVLTQPASVSGSPGQSITISCTGTSSDVGGYNYVSWYQQHPGKAPKLMIYEGSKRPSGVSNRFSGSKSGNTASLTISGLQAEDEADYYCSSYTTRSTRVFGGGTKLTVLG
10 | binds | I017D10 (scFv) scFv: RVQLVQSGAEVKKPGASVKVSCKASGYTFTSDHISWVRQAPGQGLEWMGWISPHHGKTNYAQKLQGRVTMTTDTSTSTAYMELRSLRSDDTAVYYCARVQMDSEYYDLLTGINVGPYYFDYWGKGTLVTVSSGGGGSGGGGSGGGGSSELTQDPAVSVALGQTVRITCQGDSLRSYYASWYQQKPGQAPVLVIYGKNNRPSGIPDRFSGSSSGNTASLTITGAQAEDEADYYCNSRDSSGNHVVFGGGTKLTVLG
11 | binds | I022D01 (scFv) scFv: EVNLRESGGGVDQPGRSLRLSCAASGFTFSSYGMHWVRQAPGKGLEWVAVISYDGSNKYYADSVKGRFTISRDNSKNTLYLQMNSLRAEDTAVYYCAKDGYYDILTGYSYYGMDVWGQGPMVAVSSGGGGSGGGGSGGGGSSELTQDPAVSVALGQTVRITCQGDSLRSYYTNWFQQKPGQAPLLVVYAKNKRPSGIPDRFSGSSSGNTASLTITGAQAEDEADYYCNSRDSSGNHVVFGGGTKLTVLG
12 | binds | I018C10 (scFv) scFv: GVQLVQSGPEVKKPGASVKVSCTASGYTFTSYGVSWVRQAPGQGLEWIGWISAHNGQTKYAEKFQGRVTMTRNTSISTAYMELSSLRSEDTVVYYCARDGSYDILTGYYIDNYMDVWGKGTMVTVSSGGGGSGGGGSGGGGSSELTQDPAVSVALGQTVRITCQGDSLRSYYTNWFQQKPGQAPLLVVYAKNKRPSGIPDRFSGSSSGNTASLTITGAQAEDEADYYCHSRDSSGNHVLFGGGTKLTVLG
13 | binds | I018D07 (scFv) scFv: GVQLVQSGPEVKKPGASVIVSCTASGYTFTSYGVSWVRQAPGQGLEWIGWISAHNGQTKYAEKFQGRVTMTRNTSISTAYMELSSLRSEDTAVYYCARDGSYDILTGYYIDNYMDVWGKGTMVTVSSGGGGSGGGGSGGGGSSELTQDPAVSVALGQTVRITCQGDSLRSYYTNWFQQKPGQAPLLVVYAKNKRPSGIPDRFSGSSSGNTASLTITGAQAEDEADYYCHSRDSSGNHVLFGGGTKLTVLG
14 | binds | I029D07 (scFv) scFv: QVQLQQSGAEVKKPGSSVKVSCKASGYTFTKYTMHWVRQAPGQGPEWMGWINGGSGDTKYSRKFQGRVTITKDTSASAAYMELSSLGSEDTALYYCARATYDPLTGYSFDGFDIWGQGTLVTVSSGGGGSGGGGSGGGGSQSVLTQPASVSGSPGQSITISCTGTSSDVGGYNYVSWYQQHPGKAPKLMIYDVSKRPSGVPDRFSGSKSGNTASLTISGLQAEDEGDYYCSSYAGPSRVFGGGTKVEIKR

Source: patent US20030223996A1 (published 2003)
